Source: PubChem BioAssay AID328 (DTP/NCI, 2004)
The list does not hold the whole screen: it gathers tests that were run many times, whatever their T/C, doses with no T/C, and many T/C values between a quarter and a half above the control. Other doses and runs of a compound stand elsewhere. T/C is the treated group as % of the vehicle group. Some entries give survivors of the animals treated and no T/C: the source files T/C as zero there, which appears to mark a toxic dose or a test without result, not a measured value. Some doses without a T/C left all or most animals alive at the check, yet need not have been tolerated: survival well below the control is almost never listed, so the zero probably covers shortened survival too. Survivors were counted at the toxicity check, usually on the fifth day, unless a day is given; later deaths do not show. Schedules are NCI's codes, taken here to give the interval after Q, in days (D) or hours (H), and the number of doses after X. Some entries hold several experiments; the results are listed from low to high. Some schedule codes hold Z or #, which are not explained here. For survival time, the PubChem record calls one and a half times the control and up active, and a quarter to a half above the control has no call in these data; cut-offs in other NCI protocols can differ. Some T/C values are followed by the survivors on the day toxicity was checked, most often the fifth; without a count, all were alive then. Counts like (3×) count equal records among those shown.

System: BDF1 mice, P388 leukemia ip, median survival T/C
Test: NCI In Vivo Anticancer Drug Screen. Data for tumor model P388 Leukemia (intraperitoneal) in B6D2F1 (BDF1) mice
Conditions: T/C endpoint: median survival time, higher T/C = longer survival
Method in brief: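 Steps: implant the tumour, treat one group with compound and another with vehicle, record survival, then divide treated by control.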

[1] = dose: 7.0 mg/kg/injection, schedule: Q01DX001 (ip), vehicle: saline
[2] = dose: 14.0 mg/kg/injection, schedule: Q01DX001 (ip), vehicle: saline
[3] = dose: 200.0 mg/kg/injection, schedule: Q01DX009 (ip), vehicle: saline with Tween-80

Nc1ncnc2c1ccn2C1OC(CO)C(O)C1O (stereo not given)
T/C (dose: 0.16 mg/kg/injection, schedule: Q01DX010 (ip), vehicle: saline): 140 % of control
T/C (dose: 0.25 mg/kg/injection, schedule: Q#A X020 (ip), vehicle: saline): 141 % of control
T/C (dose: 0.31 mg/kg/injection, schedule: Q01DX010 (ip), vehicle: saline): 135 and 140 % of control
T/C (dose: 0.44 mg/kg/injection, schedule: Q07DX002 (ip), vehicle: saline): 145 % of control
T/C (dose: 0.5 mg/kg/injection, schedule: Q01DX010 (ip), vehicle: saline): 145 % of control
survivor count (dose: 0.5 mg/kg/injection, schedule: Q01DX010 (sc), vehicle: saline): 6 of 6
T/C (dose: 0.5 mg/kg/injection, schedule: Q#A X020 (ip), vehicle: saline): 145 % of control
T/C (dose: 0.63 mg/kg/injection, schedule: Q01DX010 (ip), vehicle: saline): 136, 140, 145, 150 % of control
T/C (dose: 0.88 mg/kg/injection, schedule: Q07DX002 (ip), vehicle: saline): 136 % of control
survivor count (dose: 1.0 mg/kg/injection, schedule: Q#A X020 (ip), vehicle: saline): 5 of 6
T/C (dose: 1.25 mg/kg/injection, schedule: Q01DX010 (ip), vehicle: saline): 105, 118, 150 % of control (2×)
survivor count (dose: 2.0 mg/kg/injection, schedule: Q01DX010 (oral), vehicle: saline): 4 of 6
T/C (dose: 2.0 mg/kg/injection, schedule: Q02DX005 (ip), vehicle: saline): 125 and 144 % of control [9 of 10 alive]
survivor count (dose: 2.0 mg/kg/injection, schedule: Q#A X002 (ip), vehicle: saline): 10 of 10
survivor count (dose: 2.0 mg/kg/injection, schedule: Q#A X020 (ip), vehicle: saline): 6 of 6
survivor count (dose: 2.5 mg/kg/injection, schedule: Q01DX010 (ip), vehicle: saline): 4 of 6 and 6 of 6
survivor count (dose: 3.5 mg/kg/injection, schedule: Q01DX001 (ip), vehicle: saline): 3 of 6
T/C (dose: 3.5 mg/kg/injection, schedule: Q07DX002 (ip), vehicle: saline): 136 % of control
T/C (dose: 3.5 mg/kg/injection, schedule: Q07DX010 (ip), vehicle: saline): 127 % of control [5 of 6 alive]
survivor count (dose: 4.0 mg/kg/injection, schedule: Q01DX006 (iv), vehicle: saline): 6 of 6
survivor count (dose: 4.0 mg/kg/injection, schedule: Q01DX010 (ip), vehicle: saline): 5 of 6
survivor count (dose: 4.0 mg/kg/injection, schedule: Q01DX010 (oral), vehicle: saline): 3 of 6 and 4 of 6
survivor count (dose: 4.0 mg/kg/injection, schedule: Q02DX005 (ip), vehicle: saline): 10 of 10
T/C (dose: 4.0 mg/kg/injection, schedule: Q04DX003 (ip), vehicle: saline): 133 % of control
survivor count (dose: 4.0 mg/kg/injection, schedule: Q07DX002 (ip), vehicle: saline): 9 of 10
survivor count (dose: 4.0 mg/kg/injection, schedule: Q#A X002 (ip), vehicle: saline): 8 of 10
survivor count (dose: 5.0 mg/kg/injection, schedule: Q01DX010 (ip), vehicle: saline): 2 of 6
survivor count (dose: 6.0 mg/kg/injection, schedule: Q03DX010 (ip), vehicle: saline): 6 of 6
T/C [1]: 127 % of control
survivor count [1]: 2 of 6
survivor count (dose: 7.0 mg/kg/injection, schedule: Q07DX010 (ip), vehicle: saline): 4 of 6
survivor count (dose: 8.0 mg/kg/injection, schedule: Q01DX001 (ip), vehicle: saline): 7 of 10 and 9 of 10
survivor count (dose: 8.0 mg/kg/injection, schedule: Q02DX005 (ip), vehicle: saline): 2 of 10
survivor count (dose: 8.0 mg/kg/injection, schedule: Q04DX003 (ip), vehicle: saline): 10 of 10
survivor count (dose: 8.0 mg/kg/injection, schedule: Q07DX002 (ip), vehicle: saline): 7 of 10
survivor count (dose: 8.0 mg/kg/injection, schedule: Q#A X002 (ip), vehicle: saline): 0 of 10
survivor count (dose: 12.0 mg/kg/injection, schedule: Q03DX010 (ip), vehicle: saline): 1 of 6
T/C [2]: 127 % of control
survivor count [2]: 0 of 6 and 6 of 6
survivor count (dose: 14.0 mg/kg/injection, schedule: Q07DX010 (ip), vehicle: saline): 4 of 6
survivor count (dose: 16.0 mg/kg/injection, schedule: Q01DX001 (ip), vehicle: saline): 0 of 10
survivor count (dose: 16.0 mg/kg/injection, schedule: Q01DX010 (im), vehicle: saline): 6 of 6
survivor count (dose: 16.0 mg/kg/injection, schedule: Q01DX010 (oral), vehicle: saline): 3 of 6
survivor count (dose: 16.0 mg/kg/injection, schedule: Q04DX003 (ip), vehicle: saline): 0 of 10
survivor count (dose: 16.0 mg/kg/injection, schedule: Q07DX002 (ip), vehicle: saline): 0 of 10
survivor count (dose: 28.0 mg/kg/injection, schedule: Q01DX001 (ip), vehicle: saline): 0 of 6 and 3 of 6
survivor count (dose: 28.0 mg/kg/injection, schedule: Q07DX010 (ip), vehicle: saline): 1 of 6
survivor count (dose: 32.0 mg/kg/injection, schedule: Q01DX001 (ip), vehicle: saline): 0 of 10
survivor count (dose: 32.0 mg/kg/injection, schedule: Q01DX001 (oral), vehicle: saline): 5 of 10
survivor count (dose: 32.0 mg/kg/injection, schedule: Q04DX003 (ip), vehicle: saline): 0 of 10
survivor count (dose: 32.0 mg/kg/injection, schedule: Q07DX002 (ip), vehicle: saline): 0 of 10
survivor count (dose: 64.0 mg/kg/injection, schedule: Q01DX001 (oral), vehicle: saline): 0 of 10
T/C (dose: 250.0 mg/kg/injection, schedule: Q#A X020 (ip), vehicle: saline): 136 % of control
T/C (dose: 500.0 micrograms/kg/injection, schedule: Q01DX010 (ip), vehicle: saline): 136 % of control

CC(=O)[C@H]1CC[C@H]2[C@@H]3CCC4=CC(=O)[C@H](C)C[C@]4(C)[C@@]3(F)[C@@H](O)C[C@]12C
survivor count [3]: 4 of 6
survivor count (dose: 400.0 mg/kg/injection, schedule: Q01DX009 (ip), vehicle: saline with Tween-80): 5 of 6

O=S1(=O)C=C(c2ccccc2)C(c2ccccc2)=C1
T/C (dose: 33.0 mg/kg/injection, schedule: Q04DX003 (ip), vehicle: saline sonified): 136 % of control
T/C (dose: 50.0 mg/kg/injection, schedule: Q04DX003 (ip), vehicle: saline): 127 % of control

CCCNCc1c2c(O)c3c(O)c(C)c4c(c3c1O)C(=O)C(C)(O/C=C/C(OC)C(C)C(OC(C)=O)C(C)C(O)C(C)C(O)C(C)/C=C/C=C(/C)C(=O)N2)O4 (stereo not given)
survivor count [3]: 6 of 6

Cc1ccc(N=C=O)cc1[N+](=O)[O-]
survivor count (dose: 12.5 mg/kg/injection, schedule: Q01DX009 (ip), vehicle: gum acacia): 6 of 6

CS(=O)(=O)Nc1ccc(Nc2c3ccccc3nc3cc([N+](=O)[O-])ccc23)cc1
T/C (dose: 0.37 mg/kg/injection, schedule: Q04DX003 (ip), vehicle: saline with Tween-80): 125 % of control
T/C (dose: 0.75 mg/kg/injection, schedule: Q04DX003 (ip), vehicle: saline with Tween-80): 141 and 145 % of control
survivor count (dose: 6.25 mg/kg/injection, schedule: Q01DX009 (ip), vehicle: saline with Tween-80): 6 of 6
survivor count (dose: 12.5 mg/kg/injection, schedule: Q01DX009 (ip), vehicle: saline with Tween-80): 6 of 6
survivor count (dose: 25.0 mg/kg/injection, schedule: Q01DX009 (ip), vehicle: saline with Tween-80): 3 of 6 and 5 of 6
T/C (dose: 33.5 mg/kg/injection, schedule: Q04DX003 (ip), vehicle: saline with Tween-80): 127 % of control
survivor count (dose: 50.0 mg/kg/injection, schedule: Q01DX009 (ip), vehicle: saline with Tween-80): 5 of 6
survivor count (dose: 50.0 mg/kg/injection, schedule: Q04DX003 (ip), vehicle: saline with Tween-80): 6 of 6
survivor count (dose: 75.0 mg/kg/injection, schedule: Q04DX003 (ip), vehicle: saline with Tween-80): 4 of 6
survivor count (dose: 100.0 mg/kg/injection, schedule: Q01DX009 (ip), vehicle: saline with Tween-80): 6 of 6
